Measured values as given in patent US20050014155A1, “High-density cell microarrays for parallel functional determinations” (priority 2001, published 2005).
For at least one compound, name, drawing or mass did not settle the structure.

System: S. cerevisiae homozygous deletion strains (fkb1 and 93 other genes)
Assay: S. cerevisiae cell microarrays for assaying drug effects on homozygous gene deletion strains
Type: cell-based
Details: YPD rich medium with 1 μg/ml rapamycin; 94 diploid homozygous deletion strains, 5 repeats, 576 spots; FIG. 4

SMILES: CO[C@H]1C[C@@H]2CC[C@@H](C)[C@@](O)(O2)C(=O)C(=O)N2CCCC[C@H]2C(=O)O[C@H]([C@H](C)C[C@@H]2CC[C@@H](O)[C@H](OC)C2)CC(=O)[C@H](C)/C=C(\C)[C@@H](O)[C@@H](OC)C(=O)[C@H](C)C[C@H](C)/C=C/C=C/C=C/1C [rapamycin]
- proliferation of arrayed yeast deletion strains in the presence of drug: only the fkb1 strain could proliferate
